Source: patent US20180310564A1, “Mesoionic Compound” (Nippon Kayaku Kabushiki Kaisha, priority 2015, published 2018)
Structures can show the parent of a compound that is named as a salt. Some entries share one result that the patent states for a list of compounds.

Assays:
Type in all cases: in vivo
[1] = tested on: Cotton Aphid (Aphis gossypii); experiment: Test (foliar spraying) for controlling cotton aphid; settings: 200 ppm, foliar spraying on cucumber leaf, 5 days after treatment
Description: A cucumber leaf cut to a diameter of 3.5 cm was placed on cotton wool moistened with water. Two adult cotton aphids were released there for offspring for 24 hours and the adult insects were then removed. […] After air-drying, the sample with cotton wool was placed in a plastic cup, which was covered with a lid and kept in a chamber at a constant temperature of 25° C. for rearing.

[2] = tested on: Southern Yellow thrips (Thrips palmi); experiment: Test (foliar spraying) for controlling southern yellow thrips; settings: 200 ppm, foliar spraying on cucumber leaf, first instar larvae, 3 days after treatment
Description: A cucumber leaf cut to a diameter of 1.5 cm was placed on cotton wool moistened with water. […] After air-drying, 5 larvae of southern yellow thrips in the first instar larva were released there. The sample with cotton wool was placed in a plastic cup, which was covered with a lid and kept in a chamber at a constant temperature of 25° C. for rearing.

[3] = tested on: Brown Planthopper (Nilaparvata lugens); experiment: Test (foliar dipping) for controlling brown planthopper; settings: 200 ppm, rice seedlings dipped, third instar larvae, 5 days after treatment
Description: […] After air-drying, the rice seedlings held with urethane in a glass cylinder having an inner diameter of 4.5 cm and a length of 14 cm were set up in a plastic cup containing 40 mL of water. Larvae of brown planthoppers in the third instar larva were released there. The cylinder was covered with a lid of medicine paper and kept in a chamber at a constant temperature of 25° C. for rearing.

[4] = tested on: Diamondback Moth (Plutella xylostella); experiment: Test (foliar dipping) for controlling diamondback moth; settings: 200 ppm, foliar dipping of cabbage leaf, third instar larvae, 3 days after treatment
Description: A cabbage leaf cut to a diameter of 5.0 cm was dipped in the diluent of the test compounds diluted to 200 ppm in an amount of 20 mL and air-dried. After air-drying, the cabbage leaf was placed in a plastic cup, and 10 larvae of diamondback moths in the third instar larva were released there. The cup was covered with a lid and kept in a chamber at a constant temperature of 25° C. for rearing.

CC(C)c1cccc(-c2c([O-])[n+](CCC#N)c3ccccn3c2=O)c1 [Compound 12, 1-(2-cyanoethyl)-2-hydroxy-3-(3-isopropylphenyl)-4-oxo-4H-pyrido[1,2-a]pyrimidinium inner salt]
≥ 80%: Mortality of Aphis gossypii (%) [1] | Mortality of Thrips palmi (%) [2] | Mortality of Nilaparvata lugens (%) [3]

CC(C)Oc1cccc(-c2c([O-])n(CCC#N)c3cccc[n+]3c2=O)c1 [Compound 27, 1-(2-cyanoethyl)-2-hydroxy-3-(3-isopropoxyphenyl)-4-oxo-4H-pyrido[1,2-a]pyrimidinium inner salt]
≥ 80%: Mortality of Aphis gossypii (%) [1] | Mortality of Thrips palmi (%) [2] | Mortality of Nilaparvata lugens (%) [3]

N#CCCn1c([O-])c(-c2ccccc2F)c(=O)[n+]2ccccc12 [Compound 38, 1-(2-cyanoethyl)-3-(2-fluorophenyl)-2-hydroxy-4-oxo-4H-pyrido[1,2-a]pyrimidinium inner salt]
≥ 80%: Mortality of Aphis gossypii (%) [1] | Mortality of Thrips palmi (%) [2] | Mortality of Nilaparvata lugens (%) [3]

N#CCCn1c([O-])c(-c2cccc(F)c2)c(=O)[n+]2ccccc12 [Compound 39, 1-(2-cyanoethyl)-3-(3-fluorophenyl)-2-hydroxy-4-oxo-4H-pyrido[1,2-a]pyrimidinium inner salt]
≥ 80%: Mortality of Aphis gossypii (%) [1] | Mortality of Thrips palmi (%) [2] | Mortality of Nilaparvata lugens (%) [3]

N#CCC[n+]1c([O-])c(-c2cccc(Cl)c2)c(=O)n2ccccc21 [Compound 42, 3-(3-chlorophenyl)-1-(2-cyanoethyl)-2-hydroxy-4-oxo-4H-pyrido[1,2-a]pyrimidinium inner salt]
≥ 80%: Mortality of Aphis gossypii (%) [1] | mortality (Plutella xylostella) [4] | Mortality of Thrips palmi (%) [2] | Mortality of Nilaparvata lugens (%) [3]

N#CCCn1c([O-])c(-c2cccc(OCC(F)(F)F)c2)c(=O)[n+]2ccccc12 [Compound 60, 1-(2-cyanoethyl)-2-hydroxy-4-oxo-3-(3-(2,2,2-trifluoroethoxy)phenyl)-4H-pyrido[1,2-a]pyrimidinium inner salt]
≥ 80%: Mortality of Aphis gossypii (%) [1] | Mortality of Thrips palmi (%) [2] | Mortality of Nilaparvata lugens (%) [3]

CCSc1cccc(-c2c([O-])n(CCC#N)c3cccc[n+]3c2=O)c1 [Compound 66, 1-(2-cyanoethyl)-2-hydroxy-3-(3-ethylthiophenyl)-4-oxo-4H-pyrido[1,2-a]pyrimidinium inner salt]
≥ 80%: Mortality of Aphis gossypii (%) [1] | Mortality of Thrips palmi (%) [2] | Mortality of Nilaparvata lugens (%) [3]

CC(=O)N(C)c1cccc(-c2c([O-])[n+](CCC#N)c3ccccn3c2=O)c1 [Compound 84, 1-(2-cyanoethyl)-2-hydroxy-3-(3-(N-methylacetamide)phenyl)-4-oxo-4H-pyrido[1,2-a]pyrimidinium inner salt]
≥ 80%: Mortality of Aphis gossypii (%) [1] | Mortality of Thrips palmi (%) [2] | Mortality of Nilaparvata lugens (%) [3]

C=Cc1cccc(-c2c([O-])[n+](CCC#N)c3ccccn3c2=O)c1 [Compound 90, 1-(2-cyanoethyl)-2-hydroxy-4-oxo-3-(3-vinylphenyl)-4H-pyrido[1,2-a]pyrimidinium inner salt]
≥ 80%: Mortality of Aphis gossypii (%) [1] | Mortality of Thrips palmi (%) [2] | Mortality of Nilaparvata lugens (%) [3]

Cc1cc(C)cc(-c2c([O-])[n+](CCC#N)c3ccccn3c2=O)c1 [Compound 100, 1-(2-cyanoethyl)-2-hydroxy-3-(3,5-dimethylphenyl)-4-oxo-4H-pyrido[1,2-a]pyrimidinium inner salt]
≥ 80%: Mortality of Aphis gossypii (%) [1] | Mortality of Thrips palmi (%) [2] | Mortality of Nilaparvata lugens (%) [3]

COc1ccc(OC)c(-c2c([O-])n(CCC#N)c3cccc[n+]3c2=O)c1 [Compound 103, 1-(2-cyanoethyl)-2-hydroxy-3-(2,5-dimethoxyphenyl)-4-oxo-4H-pyrido[1,2-a]pyrimidinium inner salt]
≥ 80%: Mortality of Aphis gossypii (%) [1] | Mortality of Thrips palmi (%) [2] | Mortality of Nilaparvata lugens (%) [3]

Cc1cc(-c2c([O-])n(CCC#N)c3cccc[n+]3c2=O)ccc1F [Compound 140, 1-(2-cyanoethyl)-3-(4-fluoro-3-methylphenyl)-2-hydroxy-4-oxo-4H-pyrido[1,2-a]pyrimidinium inner salt]
≥ 80%: Mortality of Aphis gossypii (%) [1] | Mortality of Thrips palmi (%) [2] | Mortality of Nilaparvata lugens (%) [3]

COc1ccc(Cl)cc1-c1c([O-])[n+](CCC#N)c2ccccn2c1=O [Compound 168, 3-(3-chloro-6-methoxyphenyl)-1-(2-cyanoethyl)-2-hydroxy-4-oxo-4H-pyri do[1,2-a]pyrimidinium inner salt]
≥ 80%: Mortality of Aphis gossypii (%) [1] | Mortality of Thrips palmi (%) [2] | Mortality of Nilaparvata lugens (%) [3]

N#CCC[n+]1c([O-])c(-c2cc(C(F)(F)F)ccc2Cl)c(=O)n2ccccc21 [Compound 183, 3-(2-chloro-5-trifluoromethylphenyl)-1-(2-cyanoethyl)-2-hydroxy-4-oxo-4H-pyrido[1,2-a]pyrimidinium inner salt]
≥ 80%: Mortality of Aphis gossypii (%) [1] | Mortality of Thrips palmi (%) [2] | Mortality of Nilaparvata lugens (%) [3]

Cc1ccc(-c2c([O-])n(CCC#N)c3cccc[n+]3c2=O)cc1C(F)(F)F [Compound 200, 1-(2-cyanoethyl)-2-hydroxy-3-(4-methyl-3-trifluoromethylphenyl)-4-oxo-4H-pyrido[1,2-a]pyrimidinium inner salt]
≥ 80%: Mortality of Aphis gossypii (%) [1] | Mortality of Thrips palmi (%) [2] | Mortality of Nilaparvata lugens (%) [3]
